Results as given in US6235872A, “Proapoptotic peptides dependence polypeptides and methods of use” (The Burnham Institute, priority 1998, dated 2001).
At least one peptide structure holds a part that was inferred or is arguable (an end, a ring closure or a residue). Where a SMILES comes first, the peptide text is derived from it. Where no end group is shown, it is not given here. [ ]: non-standard residue; d: D form.

Columns and labels:
[1] = test system: NTera 2, R2, CSM14.1, LNCaP, SH-SY5Y and PC12 NRA5 cells; assay: Induction of cell death by peptides added to cells (propidium iodide, Table 1); type: cell-based; details: peptide 50 μM and 100 μM in serum free medium, 18 hours
Description: A region of a dependence polypeptide that mediates apoptosis in cells was analyzed for its ability to stimulate apoptosis in cells. […] The effect of replacing leucine with lysine at position 7 (purple, […]; SEQ ID NO:41; tat-purple, tat-GG-[…]; SEQ ID NO:42), removing the carboxy-terminal "RRI" sequence (gray, SATLDALLAAL; SEQ ID NO:43; tat-gray, tat-GG--SATLDALLAAL; SEQ ID NO:44) or amino-terminal "SATLD" sequence (green; […]; SEQ ID NO:45) on the proapoptotic activity of a dependence peptide was examined. […] The 12 amino acid HIV tat protein fragment ([…]; SEQ ID NO:52; hereinafter termed "tat"), which facilitates cellular entry, also was included on the amino terminus of some of the peptides tested. […] For convenience, the hyphen in the above amino acid sequences is a nomenclature intended to set apart the proapoptotic dependence peptides and variants thereof or control peptides from other amino acid residues contained in the peptide.

isolated mitochondria = assay: Mitochondrial swelling followed spectrophotometrically at 520 nm (FIG. 3A); type: biochemical, rats; details: 50 μM of the peptide, isolated mitochondria in CFS
Description: Consistent with these observations, molecules such as Bcl-2 which inhibit apoptosis inhibit mitochondrial swelling. Briefly, mitochondria were prepared as previously described (Ellerby et al. J. Neurosci. 17:6165-6178 (1997)) except for the following modifications. The rats were sacrificed by CO2 inhalation without fasting and the mitochondria were isolated in MIB buffer (210 mM mannitol, 70 mM sucrose, 0.05% BSA, 1 mM EGTA, 5 mM Hepes-NaOH, pH 7.4). The mitochondrial pellet samples resuspended in MCB buffer (300 mM mannitol, 10 mM KH2 PO4, 0.1% BSA, pH 7.2) and applied to a discontinuous sucrose gradient (1.6 M sucrose, 10 mM KH2 PO4, pH 7.5; 1.2 M sucrose, 10 mM KH2 PO4, pH 7.5) were centrifuged at 48,500 g for 1 hour. […] The mitochondrial pellets were collected, resuspended in MSB, and stored on ice. After the addition of 50 μM of the peptide, mitochondrial swelling was followed spectrophotometrically at 520 nm (Petronilli et al. J. Biol. Chem. 269:16638-16642 (1994)) in CFS (220 mM mannitol, 68 mM sucrose, 2 mM NaCl, 5 mM KH2 PO4, 2 mM MgCl2, 5 mM succinate, 10 mM Hepes-NaOH, 2 mM ATP, 50 μg/ml creatine kinase, 10 mM phosphocreatine, 0.75 μg/ml rotenone, pH 7.4).

mitochondria = assay: Cytochrome c release from mitochondria, Western blot (FIG. 3B); type: biochemical, rats; details: 1 hour, 37° C.
caspase-3 = assay: Cell-free caspase-3 cleavage, Western blot (FIG. 3C); type: biochemical; details: 385 μM peptide, 3 hour, 37° C., neuronal CFS extracts

Compound | Effect on apoptosis [1] | Effect on apoptosis ([1]; listed as blue) | mitochondrial swelling (decreased absorbance at 520 nm) (isolated mitochondria) | cytochrome c release by mitochondria (mitochondria; 500 μM peptide) | cleavage of caspase-3 (caspase-3) | cytochrome c release by mitochondria (mitochondria; 385 μM peptide)
SATLDALLAALRRI [Blue] | Apoptotic | underwent apoptosis | rapid increase in swelling | stimulated | stimulated | –
DLSLARLATARLAI [yellow, reference compound] | – | – | no swelling | – | no cleavage of caspase-3 was observed | –
CC[C@@H](C)[C@@H](NC(=O)[C@@H](CCCNC(=N)N)NC(=O)[C@@H](CCCNC(=N)N)NC(=O)[C@@H](CC(C)C)NC(=O)[C@@H](C)NC(=O)[C@@H](C)NC(=O)[C@@H](CC(C)C)NC(=O)[C@@H](CC(C)C)NC(=O)[C@@H](C)NC(=O)[C@@H](CC(=O)O)NC(=O)[C@@H](CC(C)C)NC(=O)[C@H](NC(=O)[C@@H](C)NC(=O)[C@H](N)CO)[C@H](C)O)C(=O)O [all D-enantiomer of the dependence peptide] (H-[dS][dA][dT][dL][dD][dA][dL][dL][dA][dA][dL][dR][dR][dI]-OH) | stimulated apoptosis | – | stimulated mitochondrial swelling | – | stimulated | stimulated
